Here are results for twelve molecules from PubChem BioAssay AID192 (DTP/NCI, 2004).

For this test, the system named is BDF1 mice, B16 melanoma ip, median survival T/C. Put plainly: NCI In Vivo Anticancer Drug Screen. Data for tumor model B16 Melanoma (intraperitoneal) in B6D2F1 (BDF1) mice. Particulars: T/C endpoint: median survival time, higher T/C = longer survival. The method in brief:
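Each result divides a survival or tumor-size measurement in the compound-treated group by the same measurement in the vehicle group.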

Setting [1] is: dose: 4.0 mg/kg/injection, schedule: Q01DX009 (ip), vehicle: water.
Where [2] appears, read: dose: 50.0 mg/kg/injection, schedule: Q01DX009 (ip), vehicle: saline with Tween-80.
[3] abbreviates: dose: 6.25 mg/kg/injection, schedule: Q01DX009 (ip), vehicle: saline with Tween-80.
Where [4] appears, read: dose: 400.0 mg/kg/injection, schedule: Q01DX009 (ip), vehicle: Klucel (hydroxypropylcellulose) (HPC).

The list is a part of this screen's results and no random one: it is rich in T/C values a quarter to a half above the control, in often repeated tests (any T/C) and in doses without a T/C. Further doses and runs are listed elsewhere. T/C is the treated group as % of the vehicle group. Some entries give survivors of the animals treated and no T/C: the source holds a T/C of zero for them, seemingly a mark for toxic or unscored doses. Some doses without a T/C left all or most animals alive at the check, yet need not have been tolerated: survival well below the control is almost never listed, so the zero probably covers shortened survival too. Survivors were counted at the toxicity check, usually on the fifth day, unless a day is given; later deaths do not show. Schedule codes are those of the source, read here as Q, the interval in days (D) or hours (H), X, the number of doses. Some schedule codes hold Z or #, which are not explained here. Some entries were tested several times; their values stand side by side, smallest first. For survival time, this PubChem deposit counts one and a half times the control or more as active, and values a quarter to a half above the control carry no call in these data; other NCI protocols may use other cut-offs.

`CCC1=C[C@H]2CN(CCc3c([nH]c4ccccc34)[C@@](C(=O)OC)(c3cc4c(cc3OC)N(C)[C@H]3[C@@](O)(C(=O)OC)[C@H](OC(C)=O)[C@]5(CC)C=CCN6CC[C@]43[C@@H]65)C2)C1`: the T/C reads like this: (dose: 0.2 mg/kg/injection, schedule: Q01DX009 (ip), vehicle: saline) 127 % of control; (dose: 0.25 mg/kg/injection, schedule: Q01DX009 (ip), vehicle: water, evaluated on day 45) 125 % of control; (dose: 0.25 mg/kg/injection, schedule: Q01DX009 (ip), vehicle: water, evaluated on day 60) 126 % of control; (dose: 0.4 mg/kg/injection, schedule: Q01DX009 (ip), vehicle: saline) 128 % of control; (dose: 0.5 mg/kg/injection, schedule: Q01DX009 (ip), vehicle: water, evaluated on day 45) 140 % of control; (dose: 0.5 mg/kg/injection, schedule: Q01DX009 (ip), vehicle: water, evaluated on day 60) 108, 133, 142 % of control. For the same molecule, the T/C (dose: 0.5 mg/kg/injection, schedule: Q04DX003 (ip), vehicle: water) is 137 % of control; the T/C (dose: 1.0 mg/kg/injection, schedule: Q01DX009 (ip), vehicle: water, evaluated on day 45) was 154 % of control; the T/C (dose: 1.0 mg/kg/injection, schedule: Q01DX009 (ip), vehicle: water, evaluated on day 60) is 137, 140, 183 % of control; the T/C (dose: 1.0 mg/kg/injection, schedule: Q04DX003 (ip), vehicle: water) is 139 % of control; the T/C (dose: 2.0 mg/kg/injection, schedule: Q01DX009 (ip), vehicle: water, evaluated on day 45) is 171 % of control; the T/C (dose: 2.0 mg/kg/injection, schedule: Q01DX009 (ip), vehicle: water, evaluated on day 60) is 137 and 152 % of control. For the same molecule, the T/C was 142 % of control (dose: 2.0 mg/kg/injection, schedule: Q04DX003 (ip), vehicle: water); 133 % of control under setting [1]; 143 % of control (dose: 8.0 mg/kg/injection, schedule: Q04DX003 (ip), vehicle: water). Moreover, the survivor count was 10 of 10 (dose: 2.0 mg/kg/injection, schedule: Q01DX009 (ip), vehicle: water); 6 of 6 (dose: 3.2 mg/kg/injection, schedule: Q01DX009 (ip), vehicle: saline); 9 of 10 under setting [1]; 4 of 6 (dose: 6.4 mg/kg/injection, schedule: Q01DX009 (ip), vehicle: saline); 2 of 10 and 10 of 10 (dose: 8.0 mg/kg/injection, schedule: Q01DX009 (ip), vehicle: water); 0 of 6 (dose: 12.8 mg/kg/injection, schedule: Q01DX009 (ip), vehicle: saline).
For the molecule `O=C(Nc1cccc(Cl)c1)ON1C(=O)C2C(C1=O)C1(Cl)C(Cl)C(Cl)C2(Cl)C1(Cl)Cl` (stereo unspecified), the survivor count reads like this: under setting [2], 9 of 10; (dose: 100.0 mg/kg/injection, schedule: Q01DX009 (ip), vehicle: saline with Tween-80) 10 of 10; (dose: 200.0 mg/kg/injection, schedule: Q01DX009 (ip), vehicle: saline with Tween-80) 10 of 10.
In the case of `CC(=O)Nc1cc2c(cc1Br)-c1ccccc1C2O` (stereo unspecified), the survivor count under setting [3] is listed as 10 of 10.
For the molecule `Clc1nc(SC2=NCCN2)c2[nH]cnc2n1`, the survivor count by setting is: (dose: 20.0 mg/kg/injection, schedule: Q01DX009 (ip), vehicle: saline with Tween-80) 10 of 10; (dose: 40.0 mg/kg/injection, schedule: Q01DX009 (ip), vehicle: saline with Tween-80) 10 of 10; (dose: 80.0 mg/kg/injection, schedule: Q01DX009 (ip), vehicle: saline with Tween-80) 2 of 10.
For the molecule `CCCCCCCCCCCC(=O)Nc1ccccc1`, the survivor count is, setting by setting: (dose: 100.0 mg/kg/injection, schedule: Q01DX009 (ip), vehicle: Klucel (hydroxypropylcellulose) (HPC)) 10 of 10; (dose: 200.0 mg/kg/injection, schedule: Q01DX009 (ip), vehicle: Klucel (hydroxypropylcellulose) (HPC)) 10 of 10; under setting [4], 9 of 10.
As to `CN(CCCN(C)CCC1CCCCC1)CCC1CCCCC1`, the survivor count under setting [2] was 10 of 10.
Take `CCCCCCCCCCCC[N+]1(CCCCCCCCCCCC)CCCC(C)C1` (stereo unspecified): the survivor count by setting is: (dose: 0.75 mg/kg/injection, schedule: Q01DX009 (ip), vehicle: Klucel (hydroxypropylcellulose) (HPC)) 10 of 10; (dose: 1.5 mg/kg/injection, schedule: Q01DX009 (ip), vehicle: Klucel (hydroxypropylcellulose) (HPC)) 5 of 10; (dose: 3.0 mg/kg/injection, schedule: Q01DX009 (ip), vehicle: Klucel (hydroxypropylcellulose) (HPC)) 0 of 10; (dose: 6.0 mg/kg/injection, schedule: Q01DX009 (ip), vehicle: Klucel (hydroxypropylcellulose) (HPC)) 2 of 10.
On to `CCCCOCCN1CCN(CCCN2c3ccccc3Sc3ccc(C(F)(F)F)cc32)CC1`, for which the survivor count reads like this: (dose: 4.68 mg/kg/injection, schedule: Q04DX003 (ip), vehicle: saline) 10 of 10; (dose: 6.25 mg/kg/injection, schedule: Q01DX009 (ip), vehicle: saline) 9 of 10; (dose: 9.36 mg/kg/injection, schedule: Q04DX003 (ip), vehicle: saline) 10 of 10.
As for `CCC[CH2][Sn]1([CH2]CCC)[O]OC(c2ccc(C)cc2)[O]1` (stereo unspecified), the survivor count is 8 of 10 (dose: 3.0 mg/kg/injection, schedule: Q01DX009 (ip), vehicle: saline with Tween-80); 10 of 10 under setting [3]; 0 of 10 (dose: 12.5 mg/kg/injection, schedule: Q01DX009 (ip), vehicle: saline with Tween-80); 0 of 10 (dose: 25.0 mg/kg/injection, schedule: Q01DX009 (ip), vehicle: saline with Tween-80).
As to `CC(=O)NNC(=O)c1ccccc1`, the survivor count (dose: 100.0 mg/kg/injection, schedule: Q#A X018 (ip), vehicle: water) is 3 of 6.
Take `CC(C)CC(NC(=O)C(CC(C)C)NC(=O)OCc1ccccc1)C(=O)O` (stereo unspecified): under “dose: 400.0 mg/kg/injection, schedule: Q01DX009 (ip), vehicle: saline with Tween-80”, the survivor count is given as 10 of 10.
Take `O=C1OC(=O)C2C1C1C3C=CC3C1C21C=C1` (stereo unspecified): the survivor count under setting [4] is reported as 0 of 10.
